Results are given in words; binding and its absence hold for the method and conditions named. In cells and extracts the contact can be indirect. Some results given as binding are weak or reduced against the parent protein; the word gives no strength.
Key:
[1] = target: SV2A^Y46A-mCer (UniProt Q02563); assay: co-IP
[2] = target: SV2A^WT-mCer (synaptic vesicle protein 2A, mCerulean-tagged, wild type) (UniProt Q02563); assay: co-IP

By UniProt entry, the sequences of proteins in these tests, tags left out. Where a name states a change or a piece, a line headed by the entry shows the natural chain unless it says otherwise.
UniProt Q02563, whole entry: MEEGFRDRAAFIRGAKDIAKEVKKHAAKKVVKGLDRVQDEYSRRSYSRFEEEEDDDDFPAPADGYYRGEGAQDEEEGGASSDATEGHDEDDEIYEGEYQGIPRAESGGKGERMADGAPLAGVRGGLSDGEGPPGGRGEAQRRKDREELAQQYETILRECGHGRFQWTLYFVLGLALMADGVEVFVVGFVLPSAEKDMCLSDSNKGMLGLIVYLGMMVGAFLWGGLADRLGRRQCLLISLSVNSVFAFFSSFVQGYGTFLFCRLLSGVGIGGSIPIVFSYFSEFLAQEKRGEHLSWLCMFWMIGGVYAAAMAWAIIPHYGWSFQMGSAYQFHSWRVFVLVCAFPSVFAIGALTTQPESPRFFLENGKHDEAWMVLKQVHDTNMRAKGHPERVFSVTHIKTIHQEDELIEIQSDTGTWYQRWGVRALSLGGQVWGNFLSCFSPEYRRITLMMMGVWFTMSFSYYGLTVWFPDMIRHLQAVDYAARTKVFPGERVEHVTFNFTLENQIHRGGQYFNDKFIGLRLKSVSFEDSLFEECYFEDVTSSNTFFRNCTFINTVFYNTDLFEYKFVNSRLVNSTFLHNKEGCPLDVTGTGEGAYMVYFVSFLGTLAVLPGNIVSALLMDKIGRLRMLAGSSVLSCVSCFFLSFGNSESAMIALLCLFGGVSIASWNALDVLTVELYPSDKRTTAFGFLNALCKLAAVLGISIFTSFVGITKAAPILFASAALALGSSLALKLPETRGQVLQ
UniProt P21707, whole entry: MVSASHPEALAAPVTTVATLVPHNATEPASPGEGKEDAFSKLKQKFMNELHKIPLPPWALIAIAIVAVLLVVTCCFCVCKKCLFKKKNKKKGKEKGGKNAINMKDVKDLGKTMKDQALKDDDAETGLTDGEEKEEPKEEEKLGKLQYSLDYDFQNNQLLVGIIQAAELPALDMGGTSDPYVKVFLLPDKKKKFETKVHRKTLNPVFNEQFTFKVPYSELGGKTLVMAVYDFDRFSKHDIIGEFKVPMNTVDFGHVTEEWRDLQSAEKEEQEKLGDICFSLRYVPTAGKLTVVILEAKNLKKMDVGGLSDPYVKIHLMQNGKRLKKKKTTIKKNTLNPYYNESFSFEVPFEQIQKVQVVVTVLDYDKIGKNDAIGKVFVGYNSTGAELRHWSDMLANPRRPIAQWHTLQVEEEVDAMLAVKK

For “Syt1-HA (synaptotagmin-1, HA-tagged) (from UniProt P21707 1-421)”, the binding [1] was “binds” and the binding [2] was “binds”.

Source: paper doi:10.1101/2022.12.12.520075
